Experimental data from publication PMC12108377.
These are yes or no findings as the source states them, for the method shown. Binding seen in cells or lysates may run through a third protein. Some entries that bind do so weakly or less than the wild type.

Sequences of proteins named here, by UniProt entry; tags and fusion partners are left off. A change or cut given only in a name is not applied to a line headed by its entry. A line that says so, or that is headed by a name, gives the form on record, which may keep a tag or linker. Residues count along the entry.
canine KIT wild type (O97799, residues 28-979): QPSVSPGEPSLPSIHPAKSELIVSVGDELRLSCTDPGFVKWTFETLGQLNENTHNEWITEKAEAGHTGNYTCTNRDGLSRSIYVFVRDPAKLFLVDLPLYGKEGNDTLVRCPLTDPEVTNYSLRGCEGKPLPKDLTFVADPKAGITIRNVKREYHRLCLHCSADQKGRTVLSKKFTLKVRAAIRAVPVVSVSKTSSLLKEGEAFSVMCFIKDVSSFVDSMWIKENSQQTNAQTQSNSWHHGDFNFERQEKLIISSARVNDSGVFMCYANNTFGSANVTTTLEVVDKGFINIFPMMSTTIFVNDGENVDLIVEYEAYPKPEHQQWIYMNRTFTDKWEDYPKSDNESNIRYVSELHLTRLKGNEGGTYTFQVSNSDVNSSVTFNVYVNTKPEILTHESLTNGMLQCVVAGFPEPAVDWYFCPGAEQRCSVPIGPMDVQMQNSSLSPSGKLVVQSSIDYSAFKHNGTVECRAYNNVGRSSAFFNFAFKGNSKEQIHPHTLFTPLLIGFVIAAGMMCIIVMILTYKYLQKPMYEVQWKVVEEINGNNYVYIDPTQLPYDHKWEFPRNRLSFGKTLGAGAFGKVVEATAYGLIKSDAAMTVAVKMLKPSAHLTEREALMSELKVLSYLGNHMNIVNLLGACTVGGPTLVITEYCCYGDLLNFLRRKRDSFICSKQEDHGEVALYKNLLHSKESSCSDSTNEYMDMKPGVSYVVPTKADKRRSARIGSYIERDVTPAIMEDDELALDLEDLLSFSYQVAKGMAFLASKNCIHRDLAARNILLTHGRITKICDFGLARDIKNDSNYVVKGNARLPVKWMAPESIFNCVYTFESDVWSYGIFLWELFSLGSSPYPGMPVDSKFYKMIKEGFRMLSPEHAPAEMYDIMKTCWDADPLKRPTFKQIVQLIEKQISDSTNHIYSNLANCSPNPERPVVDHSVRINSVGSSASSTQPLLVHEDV
canine KIT F436S mutant (O97799, form named): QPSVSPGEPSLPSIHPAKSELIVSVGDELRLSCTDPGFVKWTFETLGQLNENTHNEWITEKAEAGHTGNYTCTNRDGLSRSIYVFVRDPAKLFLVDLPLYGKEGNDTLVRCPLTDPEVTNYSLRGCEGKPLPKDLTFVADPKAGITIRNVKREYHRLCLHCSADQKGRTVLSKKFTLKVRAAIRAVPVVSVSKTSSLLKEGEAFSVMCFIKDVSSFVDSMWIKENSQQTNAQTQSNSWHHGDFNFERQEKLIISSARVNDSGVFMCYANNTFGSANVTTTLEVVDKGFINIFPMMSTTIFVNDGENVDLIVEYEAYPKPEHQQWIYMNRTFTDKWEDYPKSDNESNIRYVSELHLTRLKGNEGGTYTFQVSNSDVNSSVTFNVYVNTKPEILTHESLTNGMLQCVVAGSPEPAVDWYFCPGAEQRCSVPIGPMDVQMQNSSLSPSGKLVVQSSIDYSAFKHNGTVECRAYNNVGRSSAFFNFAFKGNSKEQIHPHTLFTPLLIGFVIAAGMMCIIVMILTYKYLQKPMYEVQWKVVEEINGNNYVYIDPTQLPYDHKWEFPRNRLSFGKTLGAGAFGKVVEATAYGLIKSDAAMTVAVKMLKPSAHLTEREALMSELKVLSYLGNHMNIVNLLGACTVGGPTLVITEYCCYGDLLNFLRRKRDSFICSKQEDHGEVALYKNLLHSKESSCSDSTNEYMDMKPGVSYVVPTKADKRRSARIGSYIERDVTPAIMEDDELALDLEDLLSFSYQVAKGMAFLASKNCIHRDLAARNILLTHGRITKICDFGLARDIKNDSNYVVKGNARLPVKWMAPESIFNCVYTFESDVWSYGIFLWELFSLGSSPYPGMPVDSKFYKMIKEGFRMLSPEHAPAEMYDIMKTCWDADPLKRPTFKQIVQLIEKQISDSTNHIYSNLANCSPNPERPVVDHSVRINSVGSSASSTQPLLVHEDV
canine KIT A434T mutant (O97799, form named): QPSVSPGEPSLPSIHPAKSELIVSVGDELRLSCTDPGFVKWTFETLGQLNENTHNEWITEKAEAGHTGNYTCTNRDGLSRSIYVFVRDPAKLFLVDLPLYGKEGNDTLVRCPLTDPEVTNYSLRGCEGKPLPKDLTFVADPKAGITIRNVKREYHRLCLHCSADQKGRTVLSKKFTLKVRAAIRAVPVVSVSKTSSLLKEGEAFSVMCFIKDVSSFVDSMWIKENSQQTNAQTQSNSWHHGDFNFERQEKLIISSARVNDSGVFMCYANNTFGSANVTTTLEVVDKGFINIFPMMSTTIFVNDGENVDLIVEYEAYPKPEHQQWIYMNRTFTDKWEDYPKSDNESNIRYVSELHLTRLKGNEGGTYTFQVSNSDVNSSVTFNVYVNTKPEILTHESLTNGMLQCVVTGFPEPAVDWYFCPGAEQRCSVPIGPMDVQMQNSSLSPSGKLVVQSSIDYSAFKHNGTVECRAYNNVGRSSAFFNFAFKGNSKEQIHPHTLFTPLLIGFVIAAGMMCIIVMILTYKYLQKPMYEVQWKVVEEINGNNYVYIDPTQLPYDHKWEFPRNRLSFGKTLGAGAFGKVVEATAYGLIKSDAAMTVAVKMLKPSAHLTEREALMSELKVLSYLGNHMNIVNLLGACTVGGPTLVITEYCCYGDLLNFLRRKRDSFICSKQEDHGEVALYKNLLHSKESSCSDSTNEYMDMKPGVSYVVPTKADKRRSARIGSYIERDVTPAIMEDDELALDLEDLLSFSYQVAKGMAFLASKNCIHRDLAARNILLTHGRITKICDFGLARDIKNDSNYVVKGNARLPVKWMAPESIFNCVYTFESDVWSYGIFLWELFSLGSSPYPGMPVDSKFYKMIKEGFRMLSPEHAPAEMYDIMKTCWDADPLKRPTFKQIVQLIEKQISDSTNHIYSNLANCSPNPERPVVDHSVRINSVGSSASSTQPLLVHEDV
canine KIT F436S/N508I co-mutant (O97799, form named): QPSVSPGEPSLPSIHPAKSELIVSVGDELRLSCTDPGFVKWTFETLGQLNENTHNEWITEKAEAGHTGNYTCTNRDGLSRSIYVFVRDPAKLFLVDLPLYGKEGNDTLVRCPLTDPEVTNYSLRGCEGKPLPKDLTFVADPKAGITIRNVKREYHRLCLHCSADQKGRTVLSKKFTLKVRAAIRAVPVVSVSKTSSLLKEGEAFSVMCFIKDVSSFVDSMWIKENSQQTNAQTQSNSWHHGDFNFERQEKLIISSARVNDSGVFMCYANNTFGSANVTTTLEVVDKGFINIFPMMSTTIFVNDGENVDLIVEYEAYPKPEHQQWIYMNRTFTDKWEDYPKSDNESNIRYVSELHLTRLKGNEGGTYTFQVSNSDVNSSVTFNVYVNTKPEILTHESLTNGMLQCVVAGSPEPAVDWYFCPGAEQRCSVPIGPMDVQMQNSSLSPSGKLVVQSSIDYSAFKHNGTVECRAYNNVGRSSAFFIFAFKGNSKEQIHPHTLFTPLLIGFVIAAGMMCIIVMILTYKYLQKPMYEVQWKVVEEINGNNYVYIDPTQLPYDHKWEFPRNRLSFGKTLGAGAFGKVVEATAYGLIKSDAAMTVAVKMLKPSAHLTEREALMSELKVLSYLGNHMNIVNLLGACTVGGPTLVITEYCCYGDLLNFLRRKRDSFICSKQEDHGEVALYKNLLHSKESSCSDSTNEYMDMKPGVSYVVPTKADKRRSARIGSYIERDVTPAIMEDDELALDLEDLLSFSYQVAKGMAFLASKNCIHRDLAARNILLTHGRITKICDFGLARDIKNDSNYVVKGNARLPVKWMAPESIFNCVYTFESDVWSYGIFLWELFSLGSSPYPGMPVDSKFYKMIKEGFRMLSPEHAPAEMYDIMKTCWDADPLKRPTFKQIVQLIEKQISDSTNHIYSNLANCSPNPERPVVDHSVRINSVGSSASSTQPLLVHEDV

Assays:
Assay in all cases: pull-down; Halo- and HA-tagged canine KIT co-transfected in AD-293 cells; 12 h serum starvation, with or without 100 ng/mL SCF for 30 min; lysate on Magne Halo-Tag beads overnight at 4 °C, washed with TBS with 0.05% IGEPAL CA-630; Western blot with anti-HA
[1] = molecular target: canine KIT F436S mutant (canine) (UniProt O97799)
[2] = molecular target: canine KIT wild type (canine) (UniProt O97799)
[3] = molecular target: canine KIT A434T mutant (canine) (UniProt O97799)
[4] = molecular target: canine KIT F436S/N508I co-mutant (canine) (UniProt O97799)

For “canine KIT F436S mutant (from UniProt O97799 28-979) (receptor)”, which binding [1] is on record?
Its binding is “binds”.

Which binding [2] does the source give for “canine KIT wild type (from UniProt O97799 28-979) (receptor)” here?
The binding was “binds”.

For “canine KIT A434T mutant (from UniProt O97799 28-979) (receptor)”, which binding [3] is on record?
Its binding is “binds”.

“canine KIT F436S/N508I co-mutant (from UniProt O97799 28-979) (receptor)” was tested. Which binding [4] did it give?
Its binding is “binds”.
